Laboratory results published in PubChem BioAssay AID2685 (National Center for Advancing Translational Sciences (NCATS), 2010).
The other results are listed elsewhere or left out. Further columns of the screen follow, without active or inactive calls. The list favours compounds with an active or inconclusive main result. Potencies come from curve fits of mixed quality, noted in brackets.

Assay: qHTS Assay for Lipid Storage Modulators in Drosophila S3 Cells;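 on cell number change: cells counted by Cell Tracker Red CMTPX staining in the red channel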
Conditions: BODIPY lipid droplet fluorescence, 18-24 h; for cell number change: measured here: cell count max response, cells fed with added oleic acid
In short: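 Laser-scanning cytometry quantifies lipid droplet accumulation (500–530 nm total intensity; droplet/cell object ratio) in oleic acid-fed (400 uM added) Drosophila S3 cells treated with a concentration series. 20 uM Triacsin C defined 100% inhibition.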

[1] = measured here: lipid fluorescence (Fed channel) AC50, cells fed with added oleic acid
[2] = measured here: cell number channel AC50, cells fed with added oleic acid

| SMILES | cell number change | AC50 [1] | AC50 [2] |
| --- | --- | --- | --- |
| C=CCOC(=O)C1=C[C@@H](c2coc3ccccc3c2=O)C[C@@H](OCc2ccc(CO)cc2)O1 | 1.03% | 0.0731 µM [rising, full curve, poor fit] |  |
| O=c1[nH]c(CSc2ncccn2)nc2c1cnn2-c1ccccc1 | -44.8% | 0.82 µM [rising, full curve, poor fit] | 29.1 µM [falling, single point] |
| Cc1ccc(/C=C2\SC(=S)N(CCC(=O)NNC(=O)c3ccccc3O)C2=O)cc1 | 12.5% | 0.461 µM [rising, partial curve] |  |
| CC(C)c1ccc(S(=O)(=O)N2CCN(C(C)C(=O)Nc3ccccc3-c3ccccc3)CC2)cc1 (stereo not given) | 117% | 23.1 µM [rising, single point] | 20.6 µM [rising, single point] |
| Cc1ccc([N+](=O)[O-])cc1S(=O)(=O)Nc1ccc(-c2ccc(N3CCCC3)nn2)cc1 | 50.7% |  | 23.1 µM [rising, single point] |
| NC(=O)C1CCN(C(=O)CCNS(=O)(=O)c2cc(Br)cnc2N)CC1 | 4.2% |  |  |
| CNC(=S)N/N=C/c1ccc(-c2cccc(C(=O)O)c2)o1 |  | 29.1 µM [rising, single point] | 4.61 µM [rising, partial curve, poor fit] |
| COC(=O)c1c(C)[nH]c(C(=O)CSc2nnnn2-c2ccccc2)c1C | 39.7% | 1.84 µM [rising, partial curve] | 1.3 µM [rising, full curve] |
| O=C(c1ccco1)N1CCN(C(=O)C2CCN(S(=O)(=O)c3cnc[nH]3)CC2)CC1 | -8.11% | 25.9 µM [falling, partial curve] |  |
| COn1c(=O)c(-c2ccc(Cl)cc2)[n+]([O-])c2ccccc21 | -11.9% | 18.4 µM [falling, single point] |  |
| O=Cc1cccc(Oc2ncccn2)c1 | -23.5% | 32.6 µM [falling, single point] |  |
| COc1ccc(NC(=O)CCC(=O)c2cc(C)sc2C)cc1 | -0.294% | 1.84 µM [falling, partial curve] |  |
| COC(=O)c1cc(S(=O)(=O)n2nc(C)c(Br)c2C)c(Cl)cc1Cl | -4.74% | 29.1 µM [rising, single point] |  |
| COc1cccc(NC(=O)C23CCC(C)(C(=O)O2)C3(C)C)c1 (stereo not given) |  | 2.06 µM [falling, partial curve] | 4.61 µM [falling, single point] |
| O=C(N/N=C/c1ccc(O)cc1)c1nc(-c2ccccc2)n(-c2ccccc2)n1 | -22.5% | 0.82 µM [falling, full curve, poor fit] | 0.731 µM [falling, full curve, poor fit] |
| O=C(CNS(=O)(=O)c1cccc(Br)c1)NCC1CCCCC1 | -19.2% | 5.17 µM [rising, single point] |  |
| CC1C(=O)N2CCCc3cc(NC(=O)COc4ccccc4)cc1c32 (stereo not given) | -10.4% |  | 4.61 µM [rising, single point] |
| COc1ccc(S(=O)(=O)N(CC(=O)NCc2ccccn2)Cc2ccccc2)cc1 | -1.68% | 2.91 µM [rising, single point] |  |
| Cc1ccc(C)c(N(CC(=O)NCCC2=CCCCC2)S(C)(=O)=O)c1 | 12.1% | 0.651 µM [falling, single point] |  |
| CCOC(=O)C1(CCOc2ccccc2)CCN(Cc2cc(OC)cc(OC)c2)CC1 | -13.2% | 0.58 µM [falling, single point] |  |
| Brc1ccc(-c2cnnc(N3CCCC3)n2)cc1 | 3.94% | 13 µM [rising, single point] |  |

| SMILES | cell number change | AC50 [1] | AC50 [2] |
| --- | --- | --- | --- |
| COc1ccc(CCN(C)C(=O)Cc2ccc(-c3ccccc3)cc2)cc1OC | 11.3% |  |  |
| Cc1cc(C)c(C(=O)N2CCCC(CNS(=O)(=O)c3cccs3)C2)o1 (stereo not given) | -3.47% | 29.1 µM [rising, single point] |  |
| COc1cccc(CNC(=O)Cn2nc(-c3ccc(Cl)cc3)ccc2=O)c1 | -0.938% | 0.146 µM [falling, full curve] | 0.146 µM [falling, full curve, poor fit] |
| CCc1ccccc1NCc1cc(=O)oc2cc(C)ccc12 | 30.4% |  |  |
| Cc1ccc(NC(=O)[C@H](Cc2ccccc2)NC(=O)[C@@H]2Cc3ccccc3CN2)c(C)c1 | 18% | 6.51 µM [falling, single point] |  |
| O=C(Nc1cccc2nsnc12)c1ccc(F)cc1 | 6.21% |  | 6.51 µM [rising, single point] |
| COc1cccc(-n2c(SCC(N)=O)nc3c([nH]c4ccccc43)c2=O)c1 | 10.7% | 2.91 µM [rising, full curve] |  |
| CCOCc1cc(CN2CCC(CCC(=O)NC3CC3)CC2)ccc1OC | 14.8% | 29.1 µM [rising, single point] |  |
| COc1ccc(NC(=O)CN(C)C(=O)c2cccc(NS(=O)(=O)c3ccc(Br)cc3)c2)cc1 |  |  | 0.13 µM [falling, full curve, poor fit] |
| CCCCOC(=O)Nc1ccc(C(N)=O)cc1 | 46.5% |  | 20.6 µM [rising, single point] |
| COc1ccc(-c2nnn(CC(=O)N(CCCN3CCOCC3)C(C(=O)NC3CCCC3)c3ccco3)n2)cc1 (stereo not given) | 11.1% |  |  |
| COc1ccc2[nH]c3c(=O)n(CCCN4CCOCC4)cnc3c2c1 | 7.84% |  |  |
| CCCc1cc(=O)oc2cc(OCC(=O)NC(Cc3c[nH]c4ccc(O)cc34)C(=O)O)c(Cl)cc12 (stereo not given) | 8.72% |  |  |
| Cc1ccc(-c2ccc(=O)n(Cc3c(F)cccc3Cl)n2)cc1 |  |  | 0.092 µM [rising, full curve, poor fit] |
| O=C(COc1ccccc1F)NNC(=O)Cc1ccc(S(=O)(=O)N2CCOCC2)s1 | 3.23% | 0.58 µM [rising, single point] |  |
| Cc1ccc(C2C(C#N)=C(N)Oc3n[nH]c(C)c32)cc1 (stereo not given) | -6.34% |  |  |
| CCS(=O)(=O)CCSc1nc(C)cc(C)n1 | 1.87% |  |  |
| COc1cccc(NC2=NCCCCC2)c1 | 8.33% |  |  |
| CCOc1ccc(/C=C(\C#N)C(=O)NCC2CCCO2)cc1OCC (stereo not given) | 1.5% | 6.51 µM [rising, single point] |  |
| CC1=C(C#N)CCC(=O)N1Cc1c(C)cc(C)cc1C | 11.2% |  |  |
| CCC(C)NC(=O)/C=C/c1cccs1 (stereo not given) | -23.7% |  | 2.31 µM [falling, full curve, poor fit] |

| SMILES | cell number change | AC50 [1] | AC50 [2] |
| --- | --- | --- | --- |
| Cn1c(=O)c2[nH]c(SCC(=O)c3ccc(F)cc3)nc2n(C)c1=O | -28.5% |  |  |
| COc1ccc2[nH]c(=O)c(CN(Cc3cccs3)C(=S)NCC3CCCO3)cc2c1 (stereo not given) | 6% | 0.291 µM [rising, full curve, poor fit] |  |
| Cc1cc(N2CCCc3ccccc32)n2ncnc2n1 | 21.5% |  |  |
| O=C(Cn1nc(C(=O)O)c2ccccc2c1=O)Nc1cc(Cl)cc(Cl)c1 | -6.85% | 20.6 µM [falling, single point] |  |
| Cc1ccc(C(=O)N2CCN(c3ccccn3)CC2)cc1 |  | 2.31 µM [rising, partial curve] | 0.092 µM [rising, partial curve, poor fit] |
| Cc1ccc(NC(=O)c2ccc(C)c(S(=O)(=O)N3CCOCC3)c2)nc1 | -11.5% | 1.03 µM [falling, partial curve] |  |
| O=C(CCNS(=O)(=O)c1ccccc1)OCC(=O)c1ccc(Br)cc1 | -18.5% |  |  |
| O=C(O)CCC(=O)Nc1ccccc1C(=O)NCc1ccccc1 | -50% |  | 29.1 µM [falling, single point] |
| CN(C)c1ccc(/C=C/C(=O)c2c(O)c3ccccc3oc2=O)cc1 | -1.28% |  |  |
| CC(=O)c1c(C)nc2ccc(C)cc2c1-c1ccccc1 | -3.7% | 6.51 µM [falling, single point] |  |
| O=C(N/C(=C\c1ccc2c(c1)OCO2)C(=O)N1CCOCC1)c1ccccc1Br | 14.1% | 0.651 µM [rising, single point] |  |
| CCOc1ccc(S(=O)(=O)N2c3ccccc3CC2C)cc1 (stereo not given) | -11% |  |  |
| COc1ccc(C(CC(=O)NCc2ccccc2)Sc2n[nH]c(-c3ccc(Cl)cc3)n2)cc1 (stereo not given) | -36.4% | 29.1 µM [falling, single point] | 1.3 µM [falling, full curve] |
| CCOc1ccc(C(=O)Nc2ccc(-c3cc4ccccc4oc3=O)c(C)c2)cc1[N+](=O)[O-] | 11.1% | 10.3 µM [rising, partial curve, poor fit] |  |
| CCN(CC)c1ccc(C(=O)NC(=S)N2CCN(Cc3ccc4c(c3)OCO4)CC2)cc1 | 12.5% | 23.1 µM [rising, partial curve, poor fit] |  |
| CCOC(=O)c1nn(-c2ccc(Cl)cc2)c(=O)c(C#N)c1C | 9.38% | 2.06 µM [rising, partial curve] |  |
| O=C(Cc1ccc(Cl)cc1)N1CCOCC1 | 18.9% | 6.51 µM [falling, partial curve, poor fit] |  |
| CCOC(=O)Cc1csc(NC(=S)NC(=O)CC(C)C)n1 | -0.334% | 3.26 µM [falling, partial curve] | 1.03 µM [falling, partial curve] |
| Cn1nnnc1Sc1ncnc2scc(-c3ccc(C(F)(F)F)cc3)c12 | -11.1% | 0.146 µM [falling, single point] |  |
| COC(=O)c1cn(C)c2ccc(S(=O)(=O)N3CCCCC3)cc2c1=O | 151% | 29.1 µM [rising, single point] | 29.1 µM [rising, single point] |

Rewritten with bars between the fields: 16 of the compounds above
SMILES | cell number change | AC50 [1] | AC50 [2]
COc1ccc2[nH]c(=O)c(CN(Cc3cccs3)C(=S)NCC3CCCO3)cc2c1 (stereo not given) | 6% | 0.291 µM [rising, full curve, poor fit] | 
Cc1cc(N2CCCc3ccccc32)n2ncnc2n1 | 21.5% |  | 
O=C(Cn1nc(C(=O)O)c2ccccc2c1=O)Nc1cc(Cl)cc(Cl)c1 | -6.85% | 20.6 µM [falling, single point] | 
Cc1ccc(C(=O)N2CCN(c3ccccn3)CC2)cc1 |  | 2.31 µM [rising, partial curve] | 0.092 µM [rising, partial curve, poor fit]
Cc1ccc(NC(=O)c2ccc(C)c(S(=O)(=O)N3CCOCC3)c2)nc1 | -11.5% | 1.03 µM [falling, partial curve] | 
O=C(CCNS(=O)(=O)c1ccccc1)OCC(=O)c1ccc(Br)cc1 | -18.5% |  | 
O=C(O)CCC(=O)Nc1ccccc1C(=O)NCc1ccccc1 | -50% |  | 29.1 µM [falling, single point]
CN(C)c1ccc(/C=C/C(=O)c2c(O)c3ccccc3oc2=O)cc1 | -1.28% |  | 
CC(=O)c1c(C)nc2ccc(C)cc2c1-c1ccccc1 | -3.7% | 6.51 µM [falling, single point] | 
O=C(N/C(=C\c1ccc2c(c1)OCO2)C(=O)N1CCOCC1)c1ccccc1Br | 14.1% | 0.651 µM [rising, single point] | 
CCOc1ccc(S(=O)(=O)N2c3ccccc3CC2C)cc1 (stereo not given) | -11% |  | 
COc1ccc(C(CC(=O)NCc2ccccc2)Sc2n[nH]c(-c3ccc(Cl)cc3)n2)cc1 (stereo not given) | -36.4% | 29.1 µM [falling, single point] | 1.3 µM [falling, full curve]
CCOc1ccc(C(=O)Nc2ccc(-c3cc4ccccc4oc3=O)c(C)c2)cc1[N+](=O)[O-] | 11.1% | 10.3 µM [rising, partial curve, poor fit] | 
CCN(CC)c1ccc(C(=O)NC(=S)N2CCN(Cc3ccc4c(c3)OCO4)CC2)cc1 | 12.5% | 23.1 µM [rising, partial curve, poor fit] | 
CCOC(=O)c1nn(-c2ccc(Cl)cc2)c(=O)c(C#N)c1C | 9.38% | 2.06 µM [rising, partial curve] | 
O=C(Cc1ccc(Cl)cc1)N1CCOCC1 | 18.9% | 6.51 µM [falling, partial curve, poor fit] | 
